Values of other authors as cited in patent US8138347B2, “Quinoline derivatives as PI3 kinase inhibitors” (GlaxoSmithKline LLC, priority 2007, dated 2012).
pIC50: −log10 of the molar value. For at least one compound, name, drawing or mass did not settle the structure.

Biological target: CK2 protein kinase

Q: With `O=c1cc(N2CCOCC2)oc2c(-c3ccccc3)cccc12` [LY294002] as the compound, how does the pIC50 read?
A: Its pIC50 is 5.00 to 5.30.
